# Results reported in paper PMC7819943, “Rice protein-binding microarrays: a tool to detect cis-acting elements near promoter regions in rice”.
# Amino acid sequences for entries named in this document (tags omitted).
# UniProt Q0JBA9, entry or part of it: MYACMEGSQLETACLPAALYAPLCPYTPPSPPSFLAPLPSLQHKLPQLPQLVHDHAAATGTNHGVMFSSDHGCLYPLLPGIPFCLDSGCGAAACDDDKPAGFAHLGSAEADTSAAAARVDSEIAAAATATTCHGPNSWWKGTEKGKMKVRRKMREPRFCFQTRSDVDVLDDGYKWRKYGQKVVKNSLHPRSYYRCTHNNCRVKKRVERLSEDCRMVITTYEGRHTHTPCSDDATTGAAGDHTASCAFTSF
# Some of the results follow.
# Target: OsWRKY34 (Oryza sativa, UniProt Q0JBA9 1-250)
# Assay: protein-binding microarray (RPBM); PBS, 2% BSA, 51.3 ng/ul salmon testes DNA, 50 uM zinc acetate, 200 nM TF, 25 C, 1 h; high values mean tight binding
# Conditions: protein: recombinant; tags: N-terminal polyhistidine and DsRed monomer fusion (pET32a); label: CyDye5-dUTP incorporated in the synthesized complementary strand; 3' TTTTT single-stranded linker to array surface; dsDNA, one strand shown
# Outline: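 In PBS with 2% BSA, salmon testes DNA and 50 µM zinc acetate, 200 nM protein was incubated on a custom Agilent array at 25 °C for 1 h and then washed off. The array had been made double-stranded by primer extension with Cy5-dUTP and blocked with 2% BSA. The proteins were transcription factors fused N-terminally to polyhistidine and DsRed, expressed in E. coli BL21-CodonPlus and purified on Ni–NTA. The binding signal is per-feature fluorescence intensity (arbitrary units) from an Axon 4000B scanner.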
row,Sequence,binding signal
1,ATTTAGTCCTAGCCATTCATCCATTTCCCTTTGACAATCCCGGAGTCACCTAGTGCAG,10600 fluorescence intensity (a.u.)
2,AGGTGTAATACCCTACTCCTGTGTGTCGATGTTCGTTGTCCGGAGTCACCTAGTGCAG,9280 fluorescence intensity (a.u.)
3,CACGTCACTTGTATTCACTAACACAATCTCTCATTAGACTCGGAGTCACCTAGTGCAG,10300 fluorescence intensity (a.u.)
4,CATAACTGATCACTTTCCTGCATATCCAGCATATATATACCGGAGTCACCTAGTGCAG,9160 fluorescence intensity (a.u.)
5,CCAGGCTTTGCGCGTCTATTCTGCCCTTTCTCCAACTCTTCGGAGTCACCTAGTGCAG,8220 fluorescence intensity (a.u.)
6,TGTGCGTGCTGTTGCTTTTTTGGATCTGGTGTGTTAGTTTCGGAGTCACCTAGTGCAG,11600 fluorescence intensity (a.u.)
7,TACATACTCCTACTCCGTAGTTTGCTGCTTTGTTGGATTCCGGAGTCACCTAGTGCAG,12900 fluorescence intensity (a.u.)
8,TTTTATACGGTTGGTTCCTATGTTCTCCTAAGTGTGAAAACGGAGTCACCTAGTGCAG,9200 fluorescence intensity (a.u.)
9,TTCACTGACAGGGGAGCATGGGGTGTGTGCTTATATAAACCGGAGTCACCTAGTGCAG,9130 fluorescence intensity (a.u.)
10,CATGTTAATTTGGGACGAGAGTCGGACTCCTATTTCCTTTCGGAGTCACCTAGTGCAG,8950 fluorescence intensity (a.u.)
11,TTCTCTATCTGGGCGTGTATTACTGTTTCCTTTCCCGATACGGAGTCACCTAGTGCAG,9170 fluorescence intensity (a.u.)
12,AATTTCTTACTGTACTTGTCATTCCCGGCCCGGATTGAATCGGAGTCACCTAGTGCAG,9980 fluorescence intensity (a.u.)
13,TAGAATCTACACTTGTTCATATCTATGCTTGTTCGTCAGTCGGAGTCACCTAGTGCAG,8860 fluorescence intensity (a.u.)
14,GCTGTCCTTGTCTTCTTTTTCTTTTTTTTTTTCCCTCCTGCGGAGTCACCTAGTGCAG,10600 fluorescence intensity (a.u.)
15,AATTTACATTGTAGTTACACCTCACTAACACACTATTTACCGGAGTCACCTAGTGCAG,8170 fluorescence intensity (a.u.)
16,GAACCCTAGGCTGTCGCGGATCCATCCCATCCCATCTCTTCGGAGTCACCTAGTGCAG,9620 fluorescence intensity (a.u.)
17,CGTACATTTTATATTGATGTATTTCCTCCTACATGCGTCTCGGAGTCACCTAGTGCAG,12100 fluorescence intensity (a.u.)
18,TGCCACCGCCGCCGCCAAGTTCCCGAGCAATTTTCCTGGCCGGAGTCACCTAGTGCAG,8030 fluorescence intensity (a.u.)
19,CGTTCTCTTCTAGTACTCCTCGTCTCTCTCCGTAGTCCGTCGGAGTCACCTAGTGCAG,10900 fluorescence intensity (a.u.)
20,TCTTAGGGCTAAACCACACAATAGCAGTGTTCTGTAGCAACGGAGTCACCTAGTGCAG,8550 fluorescence intensity (a.u.)
21,GCACGCATGCAGTTCCTTGACCAATTCTCACATCAACCACCGGAGTCACCTAGTGCAG,9100 fluorescence intensity (a.u.)
22,ACCAATGTGCCATCCCTTCGTCTTTCTGTACTCCTTTTGACGGAGTCACCTAGTGCAG,9730 fluorescence intensity (a.u.)
23,ACTCTCTTATATCCAAATTCGTTGTGTTATGATATATCACCGGAGTCACCTAGTGCAG,8530 fluorescence intensity (a.u.)
24,GCCTGCACAAAGGGGATTGGTCTTTGTCTTTGCAGATTTCCGGAGTCACCTAGTGCAG,10200 fluorescence intensity (a.u.)
25,CATTAGACCCTGAGGTTTTTGACTAGGCAGCCCACTTGTCCGGAGTCACCTAGTGCAG,9040 fluorescence intensity (a.u.)
26,TTCGATTTAGCTGCTTTCTTATCTTTTTCGTTAGCACATACGGAGTCACCTAGTGCAG,10700 fluorescence intensity (a.u.)
27,TTATGGCGTGTCAAACTTTCTTCCCATGGCTTTTTTGCCACGGAGTCACCTAGTGCAG,9970 fluorescence intensity (a.u.)

row,Sequence,binding signal
1,CTAATGGTTCTGATCGCCGTGCCTAACCCTAGCCCCATATCGGAGTCACCTAGTGCAG,8400 fluorescence intensity (a.u.)
2,ATATGCGATTTTCTTGTTGGGTTTAAACTTTTTTTAATAACGGAGTCACCTAGTGCAG,11200 fluorescence intensity (a.u.)
3,GGCACCGGAGAACTCCCCTGTCCTCCTGGCCGTCCGCGCGCGGAGTCACCTAGTGCAG,8600 fluorescence intensity (a.u.)
4,TCTCTCTCTCTCTCTCTCTCTCTCTCTGCACGCGCGCGTGCGGAGTCACCTAGTGCAG,8020 fluorescence intensity (a.u.)
5,TTGAAATTTTCTCACTTTTAATCATTTTTCTCCATGTTTGCGGAGTCACCTAGTGCAG,8690 fluorescence intensity (a.u.)
6,GAACGGACTAAAGCCCAACATGGACTCCTACATACCGATCCGGAGTCACCTAGTGCAG,8360 fluorescence intensity (a.u.)
7,ACGGCTCGGCATGCGGCGAAAAAAGCGGCGGCGCTCCGCCCGGAGTCACCTAGTGCAG,10200 fluorescence intensity (a.u.)
8,TAAGGCTGCTATATTTTGGGACGGAGGGTGTGCTCTGCTTCGGAGTCACCTAGTGCAG,8750 fluorescence intensity (a.u.)
9,AAAATTCTTGTGGGTGCTGTATTGTTGTTGTTGCTGCTGCCGGAGTCACCTAGTGCAG,11000 fluorescence intensity (a.u.)
10,TTATGGGTATGTCACCAGGGGTTTAATCTTTCATTTTCAACGGAGTCACCTAGTGCAG,12300 fluorescence intensity (a.u.)
11,TCTGATTTCACTATTGCGTAGCTTTCATCCGCATGATTACCGGAGTCACCTAGTGCAG,8020 fluorescence intensity (a.u.)
12,GATCCTCTGCTGTATTATCCCTATATTGAAAGTCACTGACCGGAGTCACCTAGTGCAG,8580 fluorescence intensity (a.u.)
13,TTCACCCCGCTGCTCCGACGTCCTAGCCATCGCCGCCGCCCGGAGTCACCTAGTGCAG,8600 fluorescence intensity (a.u.)
14,GTTGTTTGGTTGCTTGCATGAGAAAGTGTGGCACATGATCCGGAGTCACCTAGTGCAG,8660 fluorescence intensity (a.u.)
15,ACGTGTACGGCGCGGGGTGGAGGTGAGGGGTGGTGGGGCCCGGAGTCACCTAGTGCAG,18000 fluorescence intensity (a.u.)
16,ATTAAATTCCTTTCTGCCCATTTTTCGTCAAAGAAACGCACGGAGTCACCTAGTGCAG,10600 fluorescence intensity (a.u.)
17,TTTTGTCTGCTTCATGTAACCTATGGATTTCGCTGTCCAACGGAGTCACCTAGTGCAG,9260 fluorescence intensity (a.u.)
18,GGCGCCTTTTTGACTATTGACATTTGTATTCATTAGGTTTCGGAGTCACCTAGTGCAG,8160 fluorescence intensity (a.u.)
19,TCATCATCATCATCAGCTGACAAGTTCACTAAGCCCACAACGGAGTCACCTAGTGCAG,10700 fluorescence intensity (a.u.)
20,GCAGTTTGTACTTTCAAGTGATTGTCTCAGCTCTGGATGACGGAGTCACCTAGTGCAG,9110 fluorescence intensity (a.u.)
21,CTCGCCGCATCCACGCCGTCCCTTTTAATCCACCCGTCTCCGGAGTCACCTAGTGCAG,10500 fluorescence intensity (a.u.)
22,TTATCATGTTTGCTATGTCGACATAGATTTGGTCCTGACACGGAGTCACCTAGTGCAG,8970 fluorescence intensity (a.u.)
23,TTTTCTACAGCGCTGCTATAGCTACTTGTCAGCTGATGTACGGAGTCACCTAGTGCAG,8180 fluorescence intensity (a.u.)
24,GGATAATTTTTGTTCGCTTCCGCGCTTCTCGCTAGTTTTTCGGAGTCACCTAGTGCAG,8580 fluorescence intensity (a.u.)
25,CTGCTTCTAATAGTCCAGCATTAGCAAATGTCCGGCACTGCGGAGTCACCTAGTGCAG,8060 fluorescence intensity (a.u.)
26,GTGAGGGGAGGAAGCGGGGCTGCCTCGCGCGGCGGGAGGTCGGAGTCACCTAGTGCAG,8100 fluorescence intensity (a.u.)
27,CGATATCCGGCGTCTTGTCTTGGTGCATGTTAGCTTATATCGGAGTCACCTAGTGCAG,8830 fluorescence intensity (a.u.)

# For reference, part of the list above:
row,Sequence,binding signal
21,GCACGCATGCAGTTCCTTGACCAATTCTCACATCAACCACCGGAGTCACCTAGTGCAG,9100 fluorescence intensity (a.u.)
22,ACCAATGTGCCATCCCTTCGTCTTTCTGTACTCCTTTTGACGGAGTCACCTAGTGCAG,9730 fluorescence intensity (a.u.)
23,ACTCTCTTATATCCAAATTCGTTGTGTTATGATATATCACCGGAGTCACCTAGTGCAG,8530 fluorescence intensity (a.u.)
24,GCCTGCACAAAGGGGATTGGTCTTTGTCTTTGCAGATTTCCGGAGTCACCTAGTGCAG,10200 fluorescence intensity (a.u.)
